# In PubChem BioAssay AID2517 (National Center for Advancing Translational Sciences (NCATS), 2010):
# Protein sequences, listed by entry. Tags and fused reporters are not part of them.
# UniProt P27695, whole entry, looked up: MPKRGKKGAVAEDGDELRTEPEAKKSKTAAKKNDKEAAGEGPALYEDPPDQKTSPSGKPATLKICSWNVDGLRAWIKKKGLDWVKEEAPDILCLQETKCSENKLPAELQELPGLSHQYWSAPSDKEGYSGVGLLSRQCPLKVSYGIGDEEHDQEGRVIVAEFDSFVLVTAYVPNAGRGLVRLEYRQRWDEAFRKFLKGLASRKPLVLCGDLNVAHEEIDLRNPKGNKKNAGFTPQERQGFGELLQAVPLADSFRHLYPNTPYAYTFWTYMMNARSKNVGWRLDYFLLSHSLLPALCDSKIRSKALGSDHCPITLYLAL
# Where “and” joins values, the source holds several entries; their conditions need not be identical. Equal entries are not always repeated. Hit rate of the full screen: of about 350,000 compounds, about 1,200 (0.34%) were called active. Inconclusive results, whose numbers are uncertain, are shown with a selection of clear calls. The call rests on the fitted dose curve; in most records, active means well fitted inhibition curve with a large enough effect; inconclusive means small, poorly fitted or top-dose-only effect; inactive means no such curve, though single readings can be large or run the other way. Where the call is inconclusive, the potency comes from a doubtful curve fit.
# Biological target: DNA repair nuclease/redox regulator APEX1 (Homo sapiens) (UniProt P27695)
# Assay: qHTS Assay for Inhibitors of the Human Apurinic/apyrimidinic Endonuclease 1 (APE1); further: nearly all actives have a fitted effect of over 55% in size;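 on activity change, negative = inhibition: plate controls were vehicle for no effect and reference inhibitor for full effect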
# Conditions: recombinant APE1, TAMRA/BHQ-2 abasic DNA cleavage fluorescence; activity change, negative = inhibition: at 65.8 µM (top of the series)
# Summary of the method: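 Enzyme (0.75 nM final) and test compound are incubated 15 min at room temperature before adding 50 nM quenched THF abasic-site duplex. Cleavage dequenches TAMRA, followed at 525/598 nm over three reads one minute apart.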
# Potency means the concentration at half of the fitted maximal effect.
Structure (SMILES),Potency,"activity change, negative = inhibition"
Cc1occc1C(=O)N/N=C/c1ccc2c(c1)OCO2,"inconclusive: 3.16 µM [inhibitor, single point]",
Cc1c(O)c(=O)ccn1Cc1ccccc1,"inconclusive: 7.94 µM [inhibitor, single point]",
C=CCSSSCC=C,"inconclusive: 100 µM [inhibitor, partial curve, poor fit]",
CCOC(=O)c1[nH]c(C)c(/C(O)=C2\C(=O)C(=O)N(CCN(C)C)C2c2cccc(OC)c2OC)c1C (configuration not stated),"inconclusive: 0.112 µM [inhibitor, full curve, poor fit]",
COc1ccc2c(c1)C(SCC(=O)NCCc1ccccc1)CC(C)(C)O2 (configuration not stated),"inconclusive: 5.62 µM [inhibitor, full curve, poor fit]",
N#CN(Cc1ccccc1)Cc1ccccc1,"inconclusive: 8.91 µM [inhibitor, single point]",
Cc1ccc2[nH]c3c(c2c1)CN(C(=O)CN1CCN(c2cccc(C)c2C)CC1)CC3,,inactive: 0.583%
Cc1ccsc1/C=N/NC(=O)CO,"inconclusive: 89.1 µM [inhibitor, partial curve, poor fit]",
CCn1c2ccccc2c2cc(NC(=O)c3ccc([N+](=O)[O-])cc3)ccc21,"inconclusive: 15.8 µM [inhibitor, single point]",
NC(=O)c1ccc(N2CCN(c3ccccc3F)CC2)c([N+](=O)[O-])c1,"inconclusive: 15.8 µM [inhibitor, partial curve, poor fit]",
Cc1c(C=O)c(C=O)c(C)n1Cc1ccccc1,"inconclusive: 2.82 µM [inhibitor, partial curve, poor fit]",
O=C(N/N=C/c1cc(Br)c(Br)o1)C(O)c1ccccc1 (configuration not stated),"inconclusive: 31.6 µM [inhibitor, partial curve]",
CN1CCN(c2nc(-c3cccnc3)nc3scc(-c4ccccc4)c23)CC1,inconclusive: 0.0003 µM [inhibitor],
Cc1ccc(NC(=S)NN2CCN(C)CC2)cc1,"inconclusive: 3.98 µM [inhibitor, single point]",
CCC(C)[C@H]1CNCCN1CCc1cccc2ccccc12 (some centres not stated),"inconclusive: 13.4 µM [inhibitor, partial curve]",
Oc1ccccc1N=Nc1ccccc1O,,inactive: -1.32%
Cn1ccnc1C1CCCCN1C(=O)c1cc(COc2ccc(F)cc2F)on1 (configuration not stated),"inconclusive: 35.5 µM [inhibitor, single point]",
CCOC(=O)C1CCCN(c2ccc(NC(=O)c3snc4c(=O)[nH]c(C)nc34)cc2)C1 (configuration not stated),,inactive: 2%
CS(=O)(=O)c1ccc2c(c1)SC1=NC(=O)/C(=C/c3ccco3)C(=N)N12,"inconclusive: 25.1 µM [inhibitor, single point]",
O=C(O)c1ccc(Cn2c(SCc3cc(=O)n4cc(Br)ccc4n3)nc3ccsc3c2=O)cc1,"inconclusive: 28.2 µM [inhibitor, single point]",
CCOc1ccc(NC(=S)NC(C)C(c2ccccc2)N2CCN(C)CC2)cc1 (configuration not stated),"inconclusive: 0.0224 µM [inhibitor, full curve, poor fit]",
CC1Cc2ccccc2N1C(=O)CSc1nnc(-c2ccc(S(=O)(=O)N3CCOCC3)cc2)n1C (configuration not stated),,inactive: 12.4%
COc1ccc(C(=O)c2coc3ccc(OC(C)=O)cc23)cc1,,inactive: 23.3%

# Of the compounds above, 2 contain an aryl thioether with sulfur outside any ring.
Structure (SMILES),Potency,"activity change, negative = inhibition"
O=C(O)c1ccc(Cn2c(SCc3cc(=O)n4cc(Br)ccc4n3)nc3ccsc3c2=O)cc1,"inconclusive: 28.2 µM [inhibitor, single point]",
CC1Cc2ccccc2N1C(=O)CSc1nnc(-c2ccc(S(=O)(=O)N3CCOCC3)cc2)n1C (configuration not stated),,inactive: 12.4%

# Further results follow.

Structure (SMILES),Potency,"activity change, negative = inhibition"
CSCCC(NS(=O)(=O)/C=C/c1ccccc1)C(=O)NCCc1ccc(S(N)(=O)=O)cc1 (configuration not stated),"inconclusive: 10 µM [inhibitor, partial curve]",
CNC(=S)N(Cc1cc2ccc(OC)cc2[nH]c1=O)CC1CCCO1 (configuration not stated),"inconclusive: 44.7 µM [inhibitor, single point]",
C=CCn1c(SCC(N)=O)nc2nc3c(cc2c1=O)COC(C)(C)C3,"inconclusive: 0.0112 µM [inhibitor, full curve, poor fit]",
O=C1c2ccccc2-c2n[nH]c(=O)c3ccc(N4CCCCC4)c1c23,"inconclusive: 0.0447 µM [inhibitor, full curve, poor fit]",
C=CCSC1=N/C(=C\c2ccc3c(c2)OCO3)C(=O)S1,,inactive: 12.8%
O=c1[nH]c(/C=C/c2cccc([N+](=O)[O-])c2)c([N+](=O)[O-])c(=O)[nH]1,,inactive: -14.8%
COc1cccc(OC)c1C1=Nn2c(nnc2-c2ccccc2C)SC1,,inactive: -0.527%
CCOC(=O)c1c(-c2ccccc2Cl)cn2ccccc12,"inconclusive: 50.1 µM [inhibitor, partial curve]",
CC(C)CC(=O)NC(=S)Nc1ccc(NC(=O)c2cccs2)cc1,"inconclusive: 0.0045 µM [inhibitor, full curve, poor fit]",
CC(C(=O)NCC1CCCO1)N1C(=O)C2C3CC(C(Br)C3Br)C2C1=O (configuration not stated),"inconclusive: 3.16 µM [inhibitor, single point]",
COc1ccccc1Sc1nc(-c2ccccn2)ncc1OC,,inactive: 0.695%
OC[C@H]1O[C@@H](n2cnc3c(NC4CCCC4)ncnc32)[C@H](O)[C@@H]1O,"inconclusive: 35.5 µM [inhibitor, single point]",
CC(=O)N(C(C)=O)n1c(/C=C/c2ccc([N+](=O)[O-])cc2)nc2ccccc2c1=O,"inconclusive: 35.5 µM [inhibitor, partial curve]",
C[C@@H](C(=O)NCc1ccccn1)[C@@H]1C[C@@]1(C)[C@@H](NC(=O)OCc1ccccc1)c1ccccc1,"inconclusive: 1.12 µM [inhibitor, full curve]",
O=c1cc(-c2ccc(O)cc2O)oc2ccccc12,,inactive: -4.48%
CCCCN1C(=O)C(=O)NC[C@@H]1C(C)O (some centres not stated),"inconclusive: 39.8 µM [inhibitor, single point]",
C[n+]1cnc(-c2ccccc2)cc1-c1ccccc1,,inactive: 1.55%
O=c1ccn(CCc2c[nH]c3ccccc23)c2c1CCCC2,active: 0.0794 µM,
CCCCNC(=O)c1onc(CSc2cccc3ccccc23)c1C(=O)O,,inactive: 1.47%
CCn1cc(/C=N/N=C2\CCC3C4CCc5cc(O)ccc5C4CC[C@]23C)c(C)n1 (some centres not stated),"inconclusive: 0.0708 µM [inhibitor, full curve, poor fit]",
CCOC(=O)C1CCN(c2c(NCc3ccc(C(=O)N(C)Cc4ccccc4)cc3)c(=O)c2=O)CC1,"inconclusive: 0.005 µM [inhibitor, full curve, poor fit]",
CCOC(=O)/C(C#N)=C(\O)c1ccc(NC(=O)c2ccc([N+](=O)[O-])cc2)cc1,"inconclusive: 39.8 µM [inhibitor, single point]",
CCOC(=O)c1cnc2cc3c(cn2c1=O)CCCC3,,inactive: -0.58%

# Taken from above.
# `Cc1ccc(NC(=S)NN2CCN(C)CC2)cc1` – Potency: inconclusive: 3.98 µM [inhibitor, single point]
# `CCCCNC(=O)c1onc(CSc2cccc3ccccc23)c1C(=O)O` – activity change, negative = inhibition: inactive: 1.47%
# `CCOC(=O)/C(C#N)=C(\O)c1ccc(NC(=O)c2ccc([N+](=O)[O-])cc2)cc1` – Potency: inconclusive: 39.8 µM [inhibitor, single point]

# The results go on:

Structure (SMILES),Potency,"activity change, negative = inhibition"
O=C(CCNc1ccc(F)cc1)c1ccco1,"inconclusive: 8.91 µM [inhibitor, single point]",
C/C(=N\NC(=O)CN1CCCCC1)c1ccccc1O,,inactive: 53.4%
FC(F)(F)Sc1ccc(NC(=S)NCc2ccccc2)cc1,"inconclusive: 112 µM [inhibitor, partial curve, poor fit]",
COC(=O)c1c(NC(=O)c2ccoc2C)sc2c1CCC2,"inconclusive: 31.6 µM [inhibitor, single point]",
CCOC(=O)c1c(C)[nH]c(C(=O)/C(C#N)=C/c2ccc(OC)c(OC)c2)c1C,"inconclusive: 3.16 µM [inhibitor, single point]",
Cc1cccc(NC(=O)CN2C(=O)S/C(=C\c3cc(C)n(C)c3C)C2=O)c1,,inactive: -2.1%
Cc1ccc(-c2cc(C(=O)O)c3cc(Br)ccc3n2)o1,,inactive: -3.28%
N#CC1=C(S)N(c2ccccc2)C(c2ccc(-c3cc(Cl)ccc3Cl)o2)NC1=O (configuration not stated),,inactive: 9.72%
COc1cc(C(c2c(C)[nH][nH]c2=O)c2c(C)[nH][nH]c2=O)ccc1OS(=O)(=O)c1ccccc1,"inconclusive: 5.01 µM [inhibitor, single point]",
O=C1c2ccccc2C2=Nc3ccccc3SC(c3cccc(F)c3)C12 (configuration not stated),"inconclusive: 25.1 µM [inhibitor, single point]",
O=C1N/C(=N/NC(=O)c2cccc3ccccc23)S/C1=C\c1ccccc1OCc1ccccc1,,inactive: 9.76%
Cn1nc2c(c1C(=O)O)CCCC2,"inconclusive: 12.6 µM [inhibitor, partial curve, poor fit]",
Cc1ccc(N2C(=O)[C@@H]3C(C(=O)C(c4ccccc4)c4ccccc4)=NN[C@@H]3C2=O)cc1,"inconclusive: 39.8 µM [inhibitor, single point]",
COCCn1c(C(=O)N2CCCC2)cc2c1C[C@H]1CN(C(=O)c3ccccc3)[C@@](Cc3ccc(F)cc3)(C(=O)OC)[C@@H]21,"inconclusive: 794 nM [inhibitor, full curve] and inconclusive: 4.47 µM [inhibitor, full curve, poor fit]",
C#CCOCCOCCOCCNc1nc(N2CCN(C(=O)[C@H]([C@@H](C)CC)n3cc([C@@H](N)CO)nn3)CC2)nc(N2CCN(C(=O)[C@H](CCCCN)n3cc([C@@H](N)C(C)CC)nn3)CC2)n1 (some centres not stated),,inactive: 1.88%
COc1cc(/C=C/C(=O)Nc2nc3ccc(S(=O)(=O)N(C)C)cc3s2)cc(OC)c1OC,,inactive: -6.42%
CC1(C)C(CO)=CC(=O)C2=C1SCC(=O)N2,"inconclusive: 7.08 µM [inhibitor, single point]",
Cc1cccnc1NC(=O)c1ccco1,"inconclusive: 5.32 µM [inhibitor, single point]",
CC1Cc2cc(/C=C3/SC(=S)N(C)C3=O)ccc2O1 (configuration not stated),"inconclusive: 3.16 µM [inhibitor, single point]",
Cc1c(Cl)cccc1N1CC(C)(C)C1=O,,inactive: -3.65%
O=C(NCCc1cccc(F)c1)[C@@H]1CSC2c3ccccc3C(=O)N21 (some centres not stated),"inconclusive: 44.7 µM [inhibitor, single point]",
